Experimental data as given in the supplement of paper PMC12067093, “Discovery and optimisation of a covalent ligand for TRIM25 and its application to targeted protein ubiquitination” (Chemical Science, 2025).
This is one part of the list.

Chains of the proteins cited; added tags and fusions are not shown. Lines headed by an entry give the natural chain unless they say otherwise; changes in a name come on top.
UniProt Q92610: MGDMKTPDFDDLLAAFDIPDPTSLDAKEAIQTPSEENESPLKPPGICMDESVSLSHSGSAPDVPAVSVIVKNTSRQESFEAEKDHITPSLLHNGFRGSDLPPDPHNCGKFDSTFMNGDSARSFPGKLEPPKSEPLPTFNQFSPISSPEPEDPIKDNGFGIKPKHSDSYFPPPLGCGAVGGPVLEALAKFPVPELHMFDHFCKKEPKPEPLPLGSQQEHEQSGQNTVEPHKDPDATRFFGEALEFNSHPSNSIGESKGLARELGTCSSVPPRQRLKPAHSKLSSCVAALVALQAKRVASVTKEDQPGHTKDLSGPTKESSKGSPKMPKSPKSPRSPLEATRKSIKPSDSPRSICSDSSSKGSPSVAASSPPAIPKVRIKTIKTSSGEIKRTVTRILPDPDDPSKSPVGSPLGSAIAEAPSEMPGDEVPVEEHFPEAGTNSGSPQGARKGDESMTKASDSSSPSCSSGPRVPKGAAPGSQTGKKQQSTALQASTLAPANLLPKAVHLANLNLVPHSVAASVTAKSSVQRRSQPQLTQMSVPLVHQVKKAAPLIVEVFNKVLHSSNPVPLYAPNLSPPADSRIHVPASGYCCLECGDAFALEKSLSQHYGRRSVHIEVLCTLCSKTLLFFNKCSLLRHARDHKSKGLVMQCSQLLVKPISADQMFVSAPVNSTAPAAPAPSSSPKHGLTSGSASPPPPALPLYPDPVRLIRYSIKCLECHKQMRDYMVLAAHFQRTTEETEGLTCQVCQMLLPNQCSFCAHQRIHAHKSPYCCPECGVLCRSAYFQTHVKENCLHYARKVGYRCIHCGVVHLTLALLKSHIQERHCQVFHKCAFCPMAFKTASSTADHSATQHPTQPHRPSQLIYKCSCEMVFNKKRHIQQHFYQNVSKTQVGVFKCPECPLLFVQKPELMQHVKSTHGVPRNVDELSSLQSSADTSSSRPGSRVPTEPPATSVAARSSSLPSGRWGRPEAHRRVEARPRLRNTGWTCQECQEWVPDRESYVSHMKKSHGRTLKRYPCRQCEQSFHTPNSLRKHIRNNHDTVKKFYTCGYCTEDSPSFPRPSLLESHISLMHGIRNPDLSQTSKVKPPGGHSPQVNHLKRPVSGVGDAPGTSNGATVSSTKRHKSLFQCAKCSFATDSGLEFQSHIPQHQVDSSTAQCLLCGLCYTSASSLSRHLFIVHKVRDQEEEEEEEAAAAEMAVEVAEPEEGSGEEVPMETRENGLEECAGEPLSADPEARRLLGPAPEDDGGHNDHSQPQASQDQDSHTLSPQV
UniProt Q9H582: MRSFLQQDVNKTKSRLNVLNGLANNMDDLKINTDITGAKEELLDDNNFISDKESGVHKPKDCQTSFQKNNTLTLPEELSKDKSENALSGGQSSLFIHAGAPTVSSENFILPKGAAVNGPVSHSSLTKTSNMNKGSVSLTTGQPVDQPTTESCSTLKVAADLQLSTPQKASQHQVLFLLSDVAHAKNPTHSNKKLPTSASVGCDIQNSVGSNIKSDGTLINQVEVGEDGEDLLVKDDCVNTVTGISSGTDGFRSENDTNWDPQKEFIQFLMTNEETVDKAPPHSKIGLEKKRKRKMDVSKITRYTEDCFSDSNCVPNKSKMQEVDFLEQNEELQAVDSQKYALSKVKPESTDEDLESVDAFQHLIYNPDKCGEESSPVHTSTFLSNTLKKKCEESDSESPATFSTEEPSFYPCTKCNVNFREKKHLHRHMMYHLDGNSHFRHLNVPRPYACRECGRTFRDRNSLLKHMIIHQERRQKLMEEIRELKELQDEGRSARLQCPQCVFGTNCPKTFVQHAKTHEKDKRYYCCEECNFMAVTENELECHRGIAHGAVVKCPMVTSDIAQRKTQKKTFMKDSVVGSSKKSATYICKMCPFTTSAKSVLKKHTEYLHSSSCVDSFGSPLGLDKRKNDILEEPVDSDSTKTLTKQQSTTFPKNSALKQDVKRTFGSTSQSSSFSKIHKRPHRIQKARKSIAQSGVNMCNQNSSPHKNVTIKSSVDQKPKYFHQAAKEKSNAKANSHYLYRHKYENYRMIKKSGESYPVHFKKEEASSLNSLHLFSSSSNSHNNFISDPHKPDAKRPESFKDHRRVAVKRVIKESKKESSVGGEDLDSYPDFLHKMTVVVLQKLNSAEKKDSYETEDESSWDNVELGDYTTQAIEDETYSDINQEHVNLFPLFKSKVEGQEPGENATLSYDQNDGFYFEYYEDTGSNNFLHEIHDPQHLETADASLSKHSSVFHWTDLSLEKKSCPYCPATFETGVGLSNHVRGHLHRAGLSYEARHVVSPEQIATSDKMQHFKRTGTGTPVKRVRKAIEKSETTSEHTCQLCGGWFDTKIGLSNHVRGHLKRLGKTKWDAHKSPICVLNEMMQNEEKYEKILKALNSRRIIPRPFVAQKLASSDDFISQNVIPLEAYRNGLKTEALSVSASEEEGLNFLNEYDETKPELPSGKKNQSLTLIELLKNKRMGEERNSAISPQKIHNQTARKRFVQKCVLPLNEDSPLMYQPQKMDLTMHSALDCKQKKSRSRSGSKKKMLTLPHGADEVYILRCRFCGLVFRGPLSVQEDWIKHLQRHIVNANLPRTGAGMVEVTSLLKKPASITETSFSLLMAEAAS
UniProt Q9UBW7: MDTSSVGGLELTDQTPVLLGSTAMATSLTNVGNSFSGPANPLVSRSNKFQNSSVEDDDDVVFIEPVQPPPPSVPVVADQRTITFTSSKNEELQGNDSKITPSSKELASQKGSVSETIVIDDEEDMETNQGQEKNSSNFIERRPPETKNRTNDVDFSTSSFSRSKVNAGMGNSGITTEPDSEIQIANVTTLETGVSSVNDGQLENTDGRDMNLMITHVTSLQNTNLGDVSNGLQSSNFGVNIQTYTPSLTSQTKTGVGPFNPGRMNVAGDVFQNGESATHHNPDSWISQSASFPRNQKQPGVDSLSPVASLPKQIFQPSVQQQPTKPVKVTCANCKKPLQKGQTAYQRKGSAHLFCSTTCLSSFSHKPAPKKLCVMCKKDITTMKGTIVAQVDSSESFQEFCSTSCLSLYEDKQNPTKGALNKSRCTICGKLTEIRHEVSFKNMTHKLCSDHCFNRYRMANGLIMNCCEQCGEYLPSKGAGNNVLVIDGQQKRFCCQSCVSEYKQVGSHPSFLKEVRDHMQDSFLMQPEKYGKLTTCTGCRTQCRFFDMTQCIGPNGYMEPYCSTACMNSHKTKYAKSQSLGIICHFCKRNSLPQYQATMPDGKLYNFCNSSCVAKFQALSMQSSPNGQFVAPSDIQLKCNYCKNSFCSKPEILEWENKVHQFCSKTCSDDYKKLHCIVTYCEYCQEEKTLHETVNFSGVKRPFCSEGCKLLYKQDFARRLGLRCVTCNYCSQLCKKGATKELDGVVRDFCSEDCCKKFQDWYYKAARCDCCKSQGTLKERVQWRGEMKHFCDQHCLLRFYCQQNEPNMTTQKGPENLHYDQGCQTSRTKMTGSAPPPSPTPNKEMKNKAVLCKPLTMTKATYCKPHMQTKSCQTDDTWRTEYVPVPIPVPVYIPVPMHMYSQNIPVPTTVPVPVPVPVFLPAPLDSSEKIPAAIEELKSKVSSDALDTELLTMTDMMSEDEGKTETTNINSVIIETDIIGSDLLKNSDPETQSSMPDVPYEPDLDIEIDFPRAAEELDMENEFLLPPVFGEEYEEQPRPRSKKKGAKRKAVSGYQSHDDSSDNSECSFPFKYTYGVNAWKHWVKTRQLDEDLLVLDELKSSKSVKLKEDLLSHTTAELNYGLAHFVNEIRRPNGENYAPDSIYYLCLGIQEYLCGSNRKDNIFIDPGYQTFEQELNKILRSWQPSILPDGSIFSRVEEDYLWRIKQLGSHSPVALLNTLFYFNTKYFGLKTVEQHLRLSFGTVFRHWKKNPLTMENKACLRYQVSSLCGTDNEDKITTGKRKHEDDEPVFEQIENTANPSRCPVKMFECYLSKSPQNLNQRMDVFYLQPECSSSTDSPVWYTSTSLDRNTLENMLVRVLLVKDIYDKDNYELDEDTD
UniProt Q9UK33: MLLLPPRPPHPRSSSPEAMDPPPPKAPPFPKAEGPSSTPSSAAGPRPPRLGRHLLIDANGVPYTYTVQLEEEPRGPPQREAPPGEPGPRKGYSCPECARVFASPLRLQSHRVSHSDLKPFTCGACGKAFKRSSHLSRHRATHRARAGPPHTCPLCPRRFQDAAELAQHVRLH
UniProt Q8ND82: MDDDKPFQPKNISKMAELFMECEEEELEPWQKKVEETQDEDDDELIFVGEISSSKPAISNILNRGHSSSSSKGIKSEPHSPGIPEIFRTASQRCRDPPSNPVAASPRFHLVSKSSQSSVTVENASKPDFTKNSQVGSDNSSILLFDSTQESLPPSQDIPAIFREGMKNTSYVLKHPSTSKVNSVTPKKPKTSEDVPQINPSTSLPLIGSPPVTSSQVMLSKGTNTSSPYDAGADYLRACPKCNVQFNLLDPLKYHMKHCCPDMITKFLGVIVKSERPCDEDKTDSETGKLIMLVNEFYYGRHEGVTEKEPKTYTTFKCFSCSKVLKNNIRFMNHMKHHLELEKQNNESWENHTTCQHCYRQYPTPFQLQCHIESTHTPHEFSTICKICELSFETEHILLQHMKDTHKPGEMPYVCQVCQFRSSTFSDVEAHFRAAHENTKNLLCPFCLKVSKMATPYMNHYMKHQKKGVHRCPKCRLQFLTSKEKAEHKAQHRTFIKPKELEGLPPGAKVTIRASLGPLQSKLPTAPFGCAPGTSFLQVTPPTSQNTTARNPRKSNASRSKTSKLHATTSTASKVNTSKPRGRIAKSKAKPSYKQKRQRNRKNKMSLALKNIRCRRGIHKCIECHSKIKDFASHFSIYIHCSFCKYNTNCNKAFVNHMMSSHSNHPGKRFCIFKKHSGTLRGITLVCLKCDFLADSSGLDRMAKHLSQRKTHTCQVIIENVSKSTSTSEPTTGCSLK
UniProt Q8NAF0: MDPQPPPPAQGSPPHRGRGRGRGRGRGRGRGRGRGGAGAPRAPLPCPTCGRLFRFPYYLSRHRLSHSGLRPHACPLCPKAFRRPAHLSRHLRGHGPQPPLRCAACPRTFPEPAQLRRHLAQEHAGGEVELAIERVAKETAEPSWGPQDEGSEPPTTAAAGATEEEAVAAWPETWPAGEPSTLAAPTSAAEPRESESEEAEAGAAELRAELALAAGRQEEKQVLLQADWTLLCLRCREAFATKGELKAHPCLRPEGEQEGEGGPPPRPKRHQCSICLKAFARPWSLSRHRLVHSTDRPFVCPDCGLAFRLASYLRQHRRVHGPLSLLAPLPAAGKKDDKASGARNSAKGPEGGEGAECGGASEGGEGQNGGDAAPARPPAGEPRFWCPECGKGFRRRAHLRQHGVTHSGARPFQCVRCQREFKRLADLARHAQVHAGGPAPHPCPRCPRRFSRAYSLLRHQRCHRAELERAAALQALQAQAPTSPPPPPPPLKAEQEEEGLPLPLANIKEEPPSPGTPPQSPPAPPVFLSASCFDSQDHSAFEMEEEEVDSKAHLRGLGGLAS
UniProt Q5T4F4: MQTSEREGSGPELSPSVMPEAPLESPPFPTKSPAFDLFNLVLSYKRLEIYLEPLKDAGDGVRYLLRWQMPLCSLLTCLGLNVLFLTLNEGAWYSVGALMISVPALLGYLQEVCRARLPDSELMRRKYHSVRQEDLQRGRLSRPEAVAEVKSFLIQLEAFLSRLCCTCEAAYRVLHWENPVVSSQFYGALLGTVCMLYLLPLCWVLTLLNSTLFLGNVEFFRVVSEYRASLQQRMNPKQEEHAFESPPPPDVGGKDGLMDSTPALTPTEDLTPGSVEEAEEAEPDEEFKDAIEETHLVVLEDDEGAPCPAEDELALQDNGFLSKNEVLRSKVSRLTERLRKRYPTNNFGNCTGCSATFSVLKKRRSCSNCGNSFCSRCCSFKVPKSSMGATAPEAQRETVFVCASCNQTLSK
UniProt Q14592: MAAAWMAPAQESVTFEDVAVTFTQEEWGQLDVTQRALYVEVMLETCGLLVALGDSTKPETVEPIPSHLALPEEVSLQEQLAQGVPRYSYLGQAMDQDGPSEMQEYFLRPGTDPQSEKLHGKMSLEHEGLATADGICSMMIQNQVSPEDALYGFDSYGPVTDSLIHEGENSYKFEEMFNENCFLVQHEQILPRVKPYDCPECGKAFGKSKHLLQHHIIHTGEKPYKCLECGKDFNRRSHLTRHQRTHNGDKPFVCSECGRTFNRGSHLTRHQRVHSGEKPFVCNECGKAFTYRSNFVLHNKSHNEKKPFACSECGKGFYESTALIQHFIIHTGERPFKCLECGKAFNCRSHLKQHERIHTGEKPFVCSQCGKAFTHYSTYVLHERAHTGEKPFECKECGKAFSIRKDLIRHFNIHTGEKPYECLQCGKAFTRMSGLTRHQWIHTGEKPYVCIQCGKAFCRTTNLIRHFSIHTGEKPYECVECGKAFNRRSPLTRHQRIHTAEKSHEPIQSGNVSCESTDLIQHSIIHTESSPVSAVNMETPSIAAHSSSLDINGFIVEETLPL

Compound: CC1Cc2ccccc2N1C(=O)C1CCCN(C1)C(=O)CCl (mixture of isomers) [TRIM25 ligand 11 (diastereomer mixture)]
Test: probe-labelled cysteine peptide fold change vs DMSO (competition) (log2 fold change); higher = less target engagement (more negative = stronger competition)
Conditions: 10 µM; THP-1; incubation time: 4 h
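Further: competitive chemoproteomic profiling in live THP-1 cells with an iodoacetamide desthiobiotin (IA-DTB) probe, comparing probe-labelled peptide intensities in compound-treated cells against DMSO-treated controls.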

| Target | probe-labelled cysteine peptide fold change |
| --- | --- |
| ZNF451_Q9Y4E5_133_LCVDQWLK (UniProt Q9Y4E5) | 0.108 |
| ZNF496_Q96IT1_134_HCEDPVVIDDGDSPLDQEQEQLPVEPHSDLAK (UniProt Q96IT1) | -0.186 |
| ZNF638_Q14966_688_EQSLHYGSVLLITELPEDGCTEEDVRK (UniProt Q14966) | 0.454 |
| ZFYVE16_Q7Z3T8_292_EEVDVAVITAAECLK (UniProt Q7Z3T8) | 0.00496 |
| ZMYND8_Q9ULU4_106_EGQVLCCELCPR (UniProt Q9ULU4) | 0.247 |
| ZNF592_Q92610_201_FPVPELHMFDHFCK (UniProt Q92610) | -0.0756 |
| ZNF670_Q9BS34_114_VFICHSALHR (UniProt Q9BS34) | 0.0995 |
| ZNF644_Q9H582_202_KLPTSASVGCDIQNSVGSNIK (UniProt Q9H582) | -0.0287 |
| ZNF512B_Q96KM6_774_AHLASCSK (UniProt Q96KM6) | -0.0388 |
| ZFC3H1_O60293_1405_DNPEIWCHYLR (UniProt O60293) | 0.0931 |
| ZMYM2_Q9UBW7_612_LYNFCNSSCVAK (UniProt Q9UBW7) | 0.012 |
| ZMYND11_Q15326_249+258_DTCHELDELQLCK (UniProt Q15326) | 0.155 |
| ZMYM3_Q14202_436_LCSDSCFSK (UniProt Q14202) | -0.0848 |
| ZNF638_Q14966_688_EQSLHYGSVLLITELPEDGCTEEDVR (UniProt Q14966) | -0.0726 |
| ZNF644_Q9H582_450_HLNVPRPYACR (UniProt Q9H582) | 0.113 |
| ZNF512_Q96ME7_324_SEHGPISFFPESGQPECLK (UniProt Q96ME7) | 0.0655 |
| ZMYM4_Q5VZL5_948_ALLCKPITQTK (UniProt Q5VZL5) | -0.151 |
| ZFAND2B_Q8WV99_84_AVGEHIDRDCR (UniProt Q8WV99) | -0.306 |
| ZNF451_Q9Y4E5_741_CLQIMLDK (UniProt Q9Y4E5) | 0.154 |
| ZNF598_Q86UK7_835_QQELLSAHTDFCNR (UniProt Q86UK7) | -0.155 |

| Target | probe-labelled cysteine peptide fold change |
| --- | --- |
| ZNF207_O43670_54_LYTGPGLAIHCMQVHK (UniProt O43670) | 0.011 |
| ZMYND8_Q9ULU4_567_TIESCK (UniProt Q9ULU4) | -0.191 |
| ZNF580_Q9UK33_122+125_VSHSDLKPFTCGACGK (UniProt Q9UK33) | -0.0849 |
| ZNF280C_Q8ND82_94_CRDPPSNPVAASPR (UniProt Q8ND82) | -0.0425 |
| ZNF316_A6NFI3_861_CADCGR (UniProt A6NFI3) | 0.139 |
| ZNF592_Q92610_175_HSDSYFPPPLGCGAVGGPVLEALAK (UniProt Q92610) | -0.087 |
| ZMYM3_Q14202_501_VYPCVWCK (UniProt Q14202) | 0.104 |
| ZMYM3_Q14202_1048_LVLSESCSR (UniProt Q14202) | 0.15 |
| ZFPL1_O95159_35_CIVQSYLQWLQDSDYNPNCR (UniProt O95159) | -0.0311 |
| ZNF618_Q5T7W0_100_DGTSDVPAEICVVIGGVR (UniProt Q5T7W0) | 0.0259 |
| ZFR_Q96KR1_340_ISCAGPQTYK (UniProt Q96KR1) | -0.248 |
| ZNF579_Q8NAF0_443_HAQVHAGGPAPHPCPR (UniProt Q8NAF0) | 0.238 |
| ZFYVE27_Q5T4F4_353_RYPTNNFGNCTGCSATFSVLK (UniProt Q5T4F4) | -0.247 |
| ZNF512B_Q96KM6_6_TDPFCVGGR (UniProt Q96KM6) | -0.0302 |
| ZMYND11_Q15326_258_DTCHELDELQLCK (UniProt Q15326) | 0.0905 |
| ZNF687_Q8N1G0_718_CSFSAHQR (UniProt Q8N1G0) | 0.09 |
| ZNF512_Q96ME7_430_AHLGSCTLGNFVAGK (UniProt Q96ME7) | -0.0498 |
| ZNF598_Q86UK7_122_CPELPPFSLFGDLEQHMR (UniProt Q86UK7) | -0.126 |
| ZNF460_Q14592_450_PYVCIQCGK (UniProt Q14592) | -0.141 |

Same assay, conditions: 50 µM; THP-1; incubation time: 4 h

| Target | probe-labelled cysteine peptide fold change |
| --- | --- |
| ZNF451_Q9Y4E5_133_LCVDQWLK (UniProt Q9Y4E5) | -0.144 |
| ZNF496_Q96IT1_134_HCEDPVVIDDGDSPLDQEQEQLPVEPHSDLAK (UniProt Q96IT1) | -0.0772 |
| ZNF638_Q14966_688_EQSLHYGSVLLITELPEDGCTEEDVRK (UniProt Q14966) | -0.112 |
| ZFYVE16_Q7Z3T8_292_EEVDVAVITAAECLK (UniProt Q7Z3T8) | -0.17 |
| ZMYND8_Q9ULU4_106_EGQVLCCELCPR (UniProt Q9ULU4) | 0.0715 |
| ZNF592_Q92610_201_FPVPELHMFDHFCK (UniProt Q92610) | -0.198 |
| ZNF670_Q9BS34_114_VFICHSALHR (UniProt Q9BS34) | 0.038 |
| ZNF644_Q9H582_202_KLPTSASVGCDIQNSVGSNIK (UniProt Q9H582) | -0.187 |
| ZNF512B_Q96KM6_774_AHLASCSK (UniProt Q96KM6) | 0.0104 |
| ZFC3H1_O60293_1405_DNPEIWCHYLR (UniProt O60293) | 0.121 |
| ZMYM2_Q9UBW7_612_LYNFCNSSCVAK (UniProt Q9UBW7) | -0.00405 |
| ZMYND11_Q15326_249+258_DTCHELDELQLCK (UniProt Q15326) | 0.191 |
| ZMYM3_Q14202_436_LCSDSCFSK (UniProt Q14202) | -0.0935 |
| ZNF638_Q14966_688_EQSLHYGSVLLITELPEDGCTEEDVR (UniProt Q14966) | -0.0326 |
| ZNF644_Q9H582_450_HLNVPRPYACR (UniProt Q9H582) | 0.386 |
| ZNF512_Q96ME7_324_SEHGPISFFPESGQPECLK (UniProt Q96ME7) | -0.122 |
| ZMYM4_Q5VZL5_948_ALLCKPITQTK (UniProt Q5VZL5) | -0.293 |
| ZFAND2B_Q8WV99_84_AVGEHIDRDCR (UniProt Q8WV99) | -0.325 |
| ZNF451_Q9Y4E5_741_CLQIMLDK (UniProt Q9Y4E5) | 0.187 |
| ZNF598_Q86UK7_835_QQELLSAHTDFCNR (UniProt Q86UK7) | -0.302 |

| Target | probe-labelled cysteine peptide fold change |
| --- | --- |
| ZNF207_O43670_54_LYTGPGLAIHCMQVHK (UniProt O43670) | 0.179 |
| ZMYND8_Q9ULU4_567_TIESCK (UniProt Q9ULU4) | -0.128 |
| ZNF580_Q9UK33_122+125_VSHSDLKPFTCGACGK (UniProt Q9UK33) | -0.0216 |
| ZNF280C_Q8ND82_94_CRDPPSNPVAASPR (UniProt Q8ND82) | -0.104 |
| ZNF316_A6NFI3_861_CADCGR (UniProt A6NFI3) | 0.163 |
| ZNF592_Q92610_175_HSDSYFPPPLGCGAVGGPVLEALAK (UniProt Q92610) | -0.113 |
| ZMYM3_Q14202_501_VYPCVWCK (UniProt Q14202) | 0.127 |
| ZMYM3_Q14202_1048_LVLSESCSR (UniProt Q14202) | 0.197 |
| ZFPL1_O95159_35_CIVQSYLQWLQDSDYNPNCR (UniProt O95159) | 0.0264 |
| ZNF618_Q5T7W0_100_DGTSDVPAEICVVIGGVR (UniProt Q5T7W0) | -0.199 |
| ZFR_Q96KR1_340_ISCAGPQTYK (UniProt Q96KR1) | -0.091 |
| ZNF579_Q8NAF0_443_HAQVHAGGPAPHPCPR (UniProt Q8NAF0) | 0.156 |
| ZFYVE27_Q5T4F4_353_RYPTNNFGNCTGCSATFSVLK (UniProt Q5T4F4) | -0.0647 |
| ZNF512B_Q96KM6_6_TDPFCVGGR (UniProt Q96KM6) | 0.313 |
| ZMYND11_Q15326_258_DTCHELDELQLCK (UniProt Q15326) | 0.18 |
| ZNF687_Q8N1G0_718_CSFSAHQR (UniProt Q8N1G0) | -0.0697 |
| ZNF512_Q96ME7_430_AHLGSCTLGNFVAGK (UniProt Q96ME7) | -0.00274 |
| ZNF598_Q86UK7_122_CPELPPFSLFGDLEQHMR (UniProt Q86UK7) | -0.139 |
| ZNF460_Q14592_450_PYVCIQCGK (UniProt Q14592) | -0.123 |
